PubChem BioAssay AID1259425 – University of Nebraska Medical Center – 2018
This is an unselected part of about 14,000 deposited reagents. Further read-outs or replicates are left out here. Not given: the time to read-out.

Purpose: 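Compare each knockdown with KSR1 silencing using changes in marker transcripts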 (primary screen)
System: HCT116 human colon cancer cells
Reagents: siRNA pool against human genes, 50 nM siRNA
Measured: 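After 50 nM siRNA pool, branched-DNA assay measures six marker transcripts per well, minus blank, normalised to the geometric mean of two housekeeping transcripts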
Scale: BNIP3L mRNA: higher = more BNIP3L transcript after knockdown

RAB2B (RAB2B, member RAS oncogene family) showed BNIP3L mRNA, set 1 = 0.162.
After knock-down of RAPGEF5 (Rap guanine nucleotide exchange factor 5) the results were BNIP3L mRNA, set 1 = 0.0941.
Against SRSF11 (serine and arginine rich splicing factor 11), the entry reads BNIP3L mRNA, set 1 = 0.0419.
MSRB1 (methionine sulfoxide reductase B1) showed BNIP3L mRNA, set 1 = 0.201.
SVOP (SV2 related protein) scored BNIP3L mRNA, set 1 = 0.0712.
Depletion of PI4K2A (phosphatidylinositol 4-kinase type 2 alpha) came out at: BNIP3L mRNA, set 1 = 0.0801.
With knock-down of SEMG2 (semenogelin 2), the screen gave BNIP3L mRNA, set 1 = 0.127.
After knock-down of IVNS1ABP (influenza virus NS1A binding protein), the record shows BNIP3L mRNA, set 1 = 0.12.
After knock-down of MAP10 (microtubule associated protein 10), the record shows BNIP3L mRNA, set 1 = 0.0829.
RBMX2 (RNA binding motif protein X-linked 2) showed BNIP3L mRNA, set 1 = 0.0753.
Silencing of DUSP26 (dual specificity phosphatase 26) came out at: BNIP3L mRNA, set 1 = 0.076.
SOBP (sine oculis binding protein homolog) scored BNIP3L mRNA, set 1 = 0.138.
Depletion of RIBC2 (RIB43A domain with coiled-coils 2) came out at: BNIP3L mRNA, set 1 = 0.235.
After knock-down of JAGN1 (jagunal vesicle mediated transporter 1) the results were BNIP3L mRNA, set 1 = 0.109.
BAAT (bile acid-CoA:amino acid N-acyltransferase) scored BNIP3L mRNA, set 1 = 0.0929.
For ZNF45 (zinc finger protein 45) the deposit lists BNIP3L mRNA, set 1 = 0.159.
ARMC6 (armadillo repeat containing 6) showed BNIP3L mRNA, set 1 = 0.0795.
After knock-down of ADCYAP1R1 (ADCYAP receptor type I) the results were BNIP3L mRNA, set 1 = 0.098.
With knock-down of GBA1 (glucosylceramidase beta 1), the record shows BNIP3L mRNA, set 1 = 0.0632.

No new results follow: entries from further up.
MSRB1 (methionine sulfoxide reductase B1): BNIP3L mRNA, set 1 = 0.201
SVOP (SV2 related protein): BNIP3L mRNA, set 1 = 0.0712
PI4K2A (phosphatidylinositol 4-kinase type 2 alpha): BNIP3L mRNA, set 1 = 0.0801
